The record followed here is doi:10.1101/275552.

For test [1], the target named is OsIQD14-BD (yeast two-hybrid fusion) (rice (Oryza sativa, japonica variety Zhonghua11)). Kind of test: two-hybrid.
Test [2] concerns the target IQD14-n/cYFP (OsIQD14 split-YFP fusion for BiFC) (rice (Oryza sativa, japonica variety Zhonghua11)). Kind of test: split reporter.

These are yes or no findings as the source states them, for the method shown. Binding can be weak; no strength is given. Tags and fused reporters may be left off the sequences shown. For some assays here: Binding seen in cells or lysates may run through a third protein.

B1: SPR2-AD (AtSPR2, SPIRAL2; yeast two-hybrid fusion) (protein, UniProt Q9T041 1-864)
chain: MSTPTTSGSAAKPTRPARSSSLATRSCSNSGSLTSFQAMVELKQKILTSISKLADRDTYQIAVEDLEKTIQSLTPETLPMFLNCLYDSCSDPKPAVKKECLHLLSYVCSLHCDSTAAHLTKIIAQIVKRLKDSDSGVRDACRDTIGALSGIYLKGKEEGTNTGSASLAVGLFVKPLFEAMGEQNKVVQSGASMCMARMVESAASPPVTSFQKLCPRICKLLSNSSFLAKASLLPVVSSLSQVGAIAPQSLESLLESIHDCLGSTDWVTRKAAAETLTALASHSSGLIKEKTDSTITVLETCRFDKIKPVRESVTEALQLWKKISGKYVDGASDDSKLSASEQLGSEKNGEKRSNLADLMKKEASDGSTLSPDSASKGKGCFPEKAVGLLKKKAPVLSDKDFNPEFFQRLERRQSVEVVVPRRCKNNDEEESGLDDLNAMGSSNRLKNTQADDKQVKGRFDGNGSQARTSGDDKAGVVNGKETPGHHAPVSNTDNQSEGSFTSNRGNWSAIQRQLLQLERQQTNLMNMLQEFIGGSHDSMVTLEGRVRGLERIVEDMARDLSISSGRRANLTAGFGKYNSFANYPTGKYNGRAPGERGSQTDGAMRGRMWNSDMADDWFIPPHAASRNGQAGPRRSPRSEQYENEHMGNGRRGWDNKASGTIRFGEGPSARSVWQASKDEATLEAIRVAGEDGAVPRPTRVAVAPEAEAMGDDDNEGQERDPIWVSWSNAMHSLRVGDIDAAYAEVLCAGDQHLVIKLMDKTGPSLDQMSNEIANEALNFISQFLLDHSLYDICLSWSQQLLELVLQDGADTFGVPMELKTEILYNLQDACSTMDPPEDWEGPAPEQLVVQLASVWEIDLQQFDK
Consider B1, for which the binding entry in test [1] is given as “binds”.

B2: SPR2-c/nYFP (AtSPR2 split-YFP fusion for BiFC) (protein, UniProt Q9T041 1-864)
chain: B1 chain
In the case of B2, the binding entry in test [2] is reported as “binds”.
